Measurements as given in patent US20110224133A1 (University of Southern California, priority 2008, published 2011).
For part of these data: At least one structure is not confirmed: it was looked up by name or label, or the drawing left a doubt. Some entries share one result that the patent states for a list of compounds.

Assays:
TREX-BCBL-Vector cells = experiment: Cell death (BC Z2 CS analyzer) in peptide-treated TREX-BCBL cells; details: 30 or 50 μM peptide, overnight incubation
[1] = tested on: KSHV-infected BCBL1 cells; experiment: PI staining and cell cycle analysis of rapamycin-treated BCBL cells; type: cell-based, human; details: 6 days
[2] = tested on: KSHV-infected BCBL1 cells; experiment: Rapamycin-induced growth suppression and death of BCBL1 cells (cell counts, scanning EM); type: cell-based, human; details: 6 days, in the presence of doxycycline
Procedure: The effect of vFLIP on autophagy was tested in a KSHV-infected BCBL1 cell line.

Row | Compound | cell death (TREX-BCBL-Vector cells) | G1 cell cycle arrest and apoptosis (sub G1 population) [1] | growth suppression and cell death [2]
1 | RRRQRRKKRGY-G-FVNLLFLVVE (RRRQRRKKRGYGFVNLLFLVVE; retro-inverso D-amino acids) [K-α2] | 50-60% | – | –
2 | CO[C@H]1C[C@@H]2CC[C@@H](C)[C@@](O)(O2)C(=O)C(=O)N2CCCC[C@H]2C(=O)O[C@H]([C@H](C)C[C@@H]2CC[C@@H](O)[C@H](OC)C2)CC(=O)[C@H](C)/C=C(\C)[C@@H](O)[C@@H](OC)C(=O)[C@H](C)C[C@H](C)/C=C/C=C/C=C/1C [rapamycin] | – | minor increases of G1 cell cycle arrest and apoptosis | effectively induced growth suppression and cell death
3 | C-α4: TAT-fused peptide containing the cFLIPs region aa128-139 (cf. SEQ ID NO. 4) (KSFLDLVVELEK) | 75-90% | – | –
4 | C-α2: TAT-fused peptide containing the cFLIPs region aa19-28 (cf. SEQ ID NO. 3) (EMLLFLCRDV) | 50-60% | – | –
5 | RRRQRRKKRGY-G-NEMCYVWHLFTQ (RRRQRRKKRGYGNEMCYVWHLFTQ; retro-inverso D-amino acids) [K-α4] | 75-90% | – | –
